Data taken from US20250333541A1, “ANTIBODY, AND DRUG CONJUGATE AND USE THEREOF” (EVOPOINT BIOSCIENCES CO., LTD., priority 2022, published 2025).
These are yes or no findings as the source states them, for the method shown. Some entries that bind do so weakly or less than the wild type.

Legend:
[1] = molecular target: cynomolgus monkey TF-His (cynomolgus monkey); test: BLI (ForteBio Octet)
[2] = molecular target: cynomolgus monkey TF-His (cynomolgus monkey); test: ELISA, plate coated with c.TF-His
[3] = molecular target: cynomolgus monkey TF-His (cynomolgus monkey); test: ELISA, plate coated with cynomolgus monkey TF-His, HRP anti-human IgG, OD450

Measured: binding

B1: 2B12B10-hz1 (antibody, human IgG1, kappa, V domains shown)
VH: EVQLVESGGGLVQPGGSLRLSCAASGFAFSDSGMHWVRQAPGKGLEWVAYISRDSNTIYYADSVKGRFTISRDNAKNSLYLQMNSLRAEDTAVYYCGRRYYGDYFDYWGQGTLVTVSS
VL: DIVLTQSPATLSLSPGERATLSCRASQRVTNYLHWYQQKPGQSPRLLIKYASQSISGIPARFSGSGSGTDFTLTISSLEPEDFAVYFCQQSYNWPLTFGQGTKVEIKR
notes: Humanized IgG1 kappa
binds: [1] | [2] | [3]

B2: 30G11B7-hz1 (antibody, human IgG1, kappa, V domains shown)
VH: EVQLVESGGGLVKPGGSLRLSCAASGFTFSDYGMFWVRQAPGKGLEWVAYISRGSTTIYYADSVKGRFTISRDNAKNSLYLQMNSLRAEDTAVYFCTRRYYGDYFDYWGQGTLVTVSS
VL: EIVLTQSPDFQSVTPKEKVTITCRASQSISNYLHWYQQKPDQSPKLLIKYASQSISGVPSRFSGSGSGTDFTLTINSLEAEDAATYFCQQSYNWPLTFGQGTKVEIKR
notes: Humanized IgG1 kappa
binds: [1] | [2] | [3]

B3: 22F11H5-hz1 (antibody, human IgG1, kappa, V domains shown)
VH: QVQLVQSGAEVKQPGASVKVSCKASGYTFTTYWMHWVRQAPGQGLEWMGMIDPSDSYTTYAQKFQGRVTLTVDTSTSTAYMELSSLRSEDTAVYYCARGSGPGLFAYWGQGTLVTVSS
VL: DIQETQSPSSLSASVGDRVTITCRASQDIRNYLNWYQQKPGKAPKLLIYHTSRLQSGVPSRFSGSGSGTDYTLTISSLQPEDFATYYCQQGNMPPYTFGQGTKVEIKR
notes: Humanized IgG1 kappa
binds: [1] | [2] | [3]

B4: 27H8H3-hz1 (antibody, human IgG1, kappa, V domains shown)
VH: QVQLVQSGAEVKKPGASVKVSCKASGYTFTTYWMHWVRQAPGQGLEWMGMIDPSDSYTSYAQKFQGRVTLTVDTSTSTAYMELSSLRSEDTAVYYCTRGSGPGLFAYWGQGTLVTVSS
VL: DIQETQSPSSLSASVGDRVTITCRASQGISNYLNWYQQKPGKAPKLLIYHTSRLHSGVPSRFSGSVSGTDFTLTISSLQPEDFATYFCQQGNTLPYTFGQGTKVEIKR
notes: Humanized IgG1 kappa
binds: [1] | [2] | [3]
